Experimental data reported in PubChem BioAssay AID743255 (National Center for Advancing Translational Sciences (NCATS), 2014).
In all, about 390,000 compounds went through this assay and about 910 (0.23%) were called active. These results got no clear call from the source, so the numbers are uncertain. The call rests on the fitted dose curve; in most records, active means well fitted inhibition curve with a large enough effect; inconclusive means small, poorly fitted or top-dose-only effect; inactive means no such curve, though single readings can be large or run the other way. Some results for these compounds are left out of this collection, so the calls shown say nothing about other tests.

The chains behind the UniProt entries cited, without tags or fusion partners.
UniProt O94782, whole entry, looked up: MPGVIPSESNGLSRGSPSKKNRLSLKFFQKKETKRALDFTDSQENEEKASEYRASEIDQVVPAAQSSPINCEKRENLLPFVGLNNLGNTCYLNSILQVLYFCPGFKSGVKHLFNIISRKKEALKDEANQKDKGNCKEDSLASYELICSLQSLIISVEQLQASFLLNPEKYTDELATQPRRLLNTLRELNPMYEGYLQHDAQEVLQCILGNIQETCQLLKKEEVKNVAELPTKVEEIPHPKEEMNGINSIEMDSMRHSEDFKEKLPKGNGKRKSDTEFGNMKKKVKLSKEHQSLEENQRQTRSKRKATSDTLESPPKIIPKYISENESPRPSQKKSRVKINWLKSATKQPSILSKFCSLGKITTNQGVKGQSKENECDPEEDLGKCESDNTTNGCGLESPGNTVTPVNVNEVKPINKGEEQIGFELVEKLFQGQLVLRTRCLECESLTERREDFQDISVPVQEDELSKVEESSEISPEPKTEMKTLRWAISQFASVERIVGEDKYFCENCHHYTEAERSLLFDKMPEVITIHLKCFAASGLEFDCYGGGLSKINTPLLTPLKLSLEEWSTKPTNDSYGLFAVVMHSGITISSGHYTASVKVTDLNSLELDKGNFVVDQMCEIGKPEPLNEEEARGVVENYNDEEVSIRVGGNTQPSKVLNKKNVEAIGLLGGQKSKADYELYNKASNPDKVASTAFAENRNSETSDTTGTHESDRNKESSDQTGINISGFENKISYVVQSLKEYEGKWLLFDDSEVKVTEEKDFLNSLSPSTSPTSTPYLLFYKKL

biological target: Ubiquitin carboxyl-terminal hydrolase 1 (Homo sapiens) (UniProt O94782); assay: Inhibitors of USP1/UAF1: Primary Screen; conditions: recombinant USP1/UAF1, Ub-Rhodamine cleavage fluorescence; further: nearly all actives have a fitted effect of over 60% in size
Text: Deubiquitinating enzymes (DUBs) are a class of enzymes that can cleave isopeptide bond formed between the C-terminal carboxylate of ubiquitin and a lysine side-chain amino group on the target protein. Among them, ubiquitin specific proteases (USPs) constitute the largest DUB family. Human USPs are emerging as promising targets for pharmacological intervention because of their connection to a number of human diseases, including prostate, colon and breast cancer (1, 2), pediatric acute lymphoblastic leukemia (3), and familial cylindromatosis (4). The advantage of inhibiting USPs lies in the potential specificity of therapeutic intervention that can lead to better efficacy and reduce nonspecific side effects. […] This miniaturized assay has a fluorescent read-out and is used to screen the NIH Molecular Libraries Small Molecule Repository (MLSMR) in order to identify a small molecule that inhibits USP1. […]
3 microliters of reagents (buffer in columns 3 and 4 as negative control and 1nM USP1/UAF1 complex in columns 1, 2, and 5-48) are dispensed into Greiner black solid bottom 1536-well assay plates. […] The plates are immediately centrifuged at 1000 rpm for 15 seconds, and subsequently transferred to a ViewLux high-throughput CCD imager (PerkinElmer) wherein kinetic measurements of fluorescence are acquired using 480 nm excitation/540 nm emission filter set (6 reads every 60 seconds, see Table 1). […]
Potency means the concentration at half of the fitted maximal effect.

| Compound | Potency |
| --- | --- |
| CC(C)Oc1ccc(C(=O)NCC2(N(C)C)CCCCC2)cc1 | inconclusive: 0.794 µM |
| Cc1cccc(C(=O)NCC2(N(C)C)CCCCC2)c1 | inconclusive: 6.31 µM |
